Consider 104 sequences from PubChem BioAssay AID1347423 (Functional Genomics Laboratory (NCATS/FGL), 2020).

About 210 (0.4%) of roughly 52,000 sequences were called active.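 Rule for the calls: active = gene whose silencing raises cell survival under the drug, median off-target-corrected z-score across its silencing RNAs 2 or more; inactive = the rest.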 The list shows a part of the results.

This experiment can be described thus: Resistance to Poly (ADP-Ribose) Polymerase inhibitor: Gene Identification via Genome-wide siRNA Screen. Particulars: mouse BRCA2 R2336H ES cells, olaparib, CellTiter-Glo viability; hits give high values. The procedure, abridged:
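Genome-wide siRNA screen (3 siRNAs/gene, 20 nM) in mouse ES cells carrying hypomorphic BRCA2 R2336H; olaparib 500 nM added 48 h post-transfection, CellTiter-Glo viability 72 h later. Normalized to plate-median negative control; MAD z-scores, gene median, seed-adjusted.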
For GGUGAUAACUGUAUUUCAGTT against Ftsj1, the z-score is inactive: -0.808. To GCGCAGAGAUUACCUUAAGTT against Gtf3a belongs inactive: -1.88. The same measure for “GCAAGUCAGCUACAACUGUTT against D11Bwg0434e”: inactive: 0.0907. To “GGUGACCUUACCUAAUGUATT against 2810422O20Rik” belongs inactive: 1.09; to GGAGAAAGAAGCUAGUGAGTT against MGC107702, inactive: 0.0546; to GGGUUUAUGGGCAUGUCCCTT against Adipor2, inactive: 0.373. For the sequence CGUGUGGACCAAUGUGGUATT against BC035537, the z-score was inactive: -0.297. To GGGAUGGAAGAAUGUAAUGTT against Slc30a9 belongs inactive: -0.554; to GGUUGGCCUGAGUGAAAUGTT against Spata5, inactive: -0.729. The same measure for GCCACUGUUUGUAGGAACGTT against Mmp11: inactive: 0.827. To CCUCUCAUGUAUCCUGUGATT against Olfr292 belongs inactive: -0.652; to GCGGGUUCUUUAUGACCCUTT against Car11, inactive: 0.568; to CGGCGGUUUGCUCUAUUCGTT against Pou3f2, inactive: 0.319. For CCCUCAUCGUGUCUAUCAUTT against Unc13a, the z-score is inactive: 0.799. The same measure for GCACUCCUGAACCAUUCUCTT against Tubb4: inactive: -2.32. To GCAGAUCUUGUGAUUAAUGTT against Ildr1 belongs inactive: 1.53; to GGUUGUUUGGAUUUUCUUCTT against Tars, inactive: -2.01; to GGAAAAGGUGGAAGGCGGATT against Madd, inactive: -0.565. The same measure for GGAGUAAGACGGAAACGAGTT against Map3k1: inactive: -1.85. Turning to GCGGAGAAUGGAAAAACUUTT against Enpep, the z-score was inactive: 0.0423.

As for GGAGAACAAGGCAUUCCUGTT against Col10a1, the z-score is inactive: 1.4. To CGGAUUCGGGAAUUCUAUCTT against Nspc1 belongs inactive: 0.478; to GGGCUCUUUGAAGUUGGAUTT against Rpe65, inactive: -1.27; to “CGUUCAAGCUCAAAGAGCATT against 1810035L17Rik”, inactive: -0.165.

GGUGAACAGAAGGACAGAUTT against MP4: the z-score was inactive: -2.11. Take “GCAAGUAUAUUAGAUGAGCTT against 1110030K22Rik”: the z-score is inactive: 0.0788. To GGUGCCCGAAGUUAUGUUGTT against Ppp1r3f belongs inactive: 0.644; to GGAGACCAUCCAAUUAUGATT against Mak10, inactive: 0.0257; to CGUAUCAAGAAGUGCUGUGTT against Kcnk9, inactive: 1.01. To CCGAUACAGGGACAGUCAUTT against Mrpl38 belongs inactive: 0.771. Take CGGACACUCGGAUCAUAUUTT against BC038925: the z-score is inactive: -1.14. To GCUGGAGUUUCAGUCAAGGTT against Ctso belongs inactive: -0.321; to CCAAUAUUCAGUCCUAUAUTT against Csen, inactive: -2.46. To “CGGGUCCUUUUCCACUACATT against 4932417H02Rik” belongs inactive: -1.75; to “GCUAGAACUGCUUACACCGTT against 4432406C08Rik”, inactive: 2.13.

On to GGAUAUCGUCUGCUACCUGTT against Dgkb, for which the z-score is inactive: 0.683. Regarding GGAAAUCACCAUGCCCUCUTT against S100a8, the z-score is inactive: -0.648.

Take GGCUUUCGGCAGCAUCUUGTT against Tk1: the z-score was inactive: 0.902. To GGUACACAAUCUCCAAUGCTT against Rpp30 belongs inactive: -0.307; to GGAUUCAAUAUCAAUUGGATT against Htr2c, inactive: 0.115. As to GGAUCUAAAGGGUAGUGUCTT against Rnf35, the z-score is inactive: 0.767. The same measure for GCAUCUCUAAUGUCCAGCATT against AI159731: inactive: -0.881; for “GGAGAAGAAGCAGAGAGAATT against C530028I08Rik”: inactive: -0.263; for GGAAAGAAAGGAGAGGAGGTT against Tmem18: inactive: 0.618. To AAGCACAAACUCACAGCCCTT against Hoxa4 belongs inactive: 0.452. To GGAUUGGUAGCUUAUGUGGTT against Hnrpr belongs inactive: -0.158; to CCAUCAAACAGAUCUUAUUTT against Ube2i, inactive: -3.11; to “GGGCUCUAACAUCUUAUACTT against D330013L20Rik”, inactive: 1.11. Consider GGAUGCAUGGCACAGCUUUTT against Olfr905, for which the z-score was inactive: -0.0193. Turning to GGACAAAAUCACCUCACUUTT against Olfr1135, the z-score was inactive: -2.32. The same measure for GGUGGUUUAUGAAAUACCATT against Mbldc1: inactive: 0.583. To GCGAAUUUGAGUUGAGGCUTT against Bmp2 belongs inactive: -1.32. The same measure for GCCUCAGUACAAGGUAGCUTT against Slc30a3: inactive: -1.02. Take GCGGAUUAUUUACAACACUTT against Catnal1: the z-score is inactive: 1.35. GGCGGUUCCCUCAGAAAAUTT against Pias1: the z-score is inactive: -0.73.

In the case of “GCCACUUUUACCCUCAAGCTT against 4930422G04Rik”, the z-score was inactive: 0.204. Consider “GGGAUUGUGUGAAUCAUACTT against 5730494N06Rik”, for which the z-score was inactive: -0.697. To GGUGUCCUUAAGUUUGCCCTT against Grcc10 belongs inactive: 0.727; to CCUUUCGUCAUGGUAUUAGTT against Taf3, inactive: 0.257. To GGGAUGGAUCAUAGGAUUCTT against Taldo1 belongs inactive: 1.59. With GGAGCUGUUCUCAUCCGUUTT against BC031748, the z-score is inactive: -0.689. To “GGGAGAUGCAACCUCUCUUTT against D030011O10Rik” belongs inactive: -0.04; to “GGAGAAGGUGCUCAAGUUGTT against 4921515J06Rik”, inactive: -1.3; to “GGAGCUCGCCAAAAGGAAGTT against 1500031L02Rik”, inactive: -0.654. To GCAGAGGGUUUUCCAAGCGTT against Ddx4 belongs inactive: -0.994. Turning to GCUGAUGAUCUACAUCUCCTT against Srd5a2l, the z-score is inactive: 1.51. To GCGUUUGUGAAGCAUAUCATT against Myl3 belongs inactive: -1.74; to GGCUAACCGUGGCUUCAUCTT against Lamc1, inactive: -2.26; to GGUCUACAGACUGGAUUCUTT against V1rf4, inactive: 0.527.

With GGUAUUCAUUCUUUCAGUCTT against Hoxa1, the z-score is inactive: -0.529. As to CCCUCUUGACACGUUCAAGTT against Serpina3n, the z-score is inactive: 0.194.

On to “CCGUUCUCAGCAGUUACUGTT against 0610038K03Rik”, for which the z-score was inactive: -1.12. GGCUGUUAAUGCAAAAAAATT against Ern2: the z-score is inactive: 0.523.

On to GGUUCUUCCAAAUGAUCCATT against Ccnh, for which the z-score is inactive: -0.631.

GGGAUGAAGUUUGAGGACGTT against Mrps11: the z-score is inactive: -2.07. To GCUGACCAUUUUGAUGCCCTT against AL024210 belongs inactive: -1.57; to GCAAGGAAGGAUAUUACACTT against Mmp24, inactive: -0.584; to GGCUAAAACUGCACAUAAATT against BC027061, inactive: -0.0896. To GUGAUGCGCAUUUCGAGUCTT against Sf3b5 belongs inactive: 1.17; to CCAGUAUGUCUGUAAGUGATT against Wnt5b, inactive: 0.727; to GCUGGGUGAAUAAUGUUAATT against Sytl2, inactive: 0.522. Consider “GGACUGGUACAAGACAAUGTT against 9430041O17Rik”, for which the z-score is inactive: 0.722. The same measure for GGUGAAAAAAGGAAGCAAATT against Senp6: inactive: -1.05. To GGAGAUCUCCUCAGCCACATT against Gemin4 belongs inactive: 0.455; to GGCAGAAGGCAAAGAAAGGTT against Cyp3a11, inactive: -0.643; to GGAAGGAAGUCUCAACUCGTT against Lhx5, inactive: 1.3.

For the sequence ACGGUACUCAGUGCAAGCATT against Scarf1, the z-score is inactive: 0.0589.

Consider GGAAAAUAGGGCGACAAAUTT against Tdrd7, for which the z-score was inactive: 0.537. To GGAACCUUUCAGAAAUAUATT against BB146404 belongs inactive: -0.713. In the case of GGUGACAAGCGGAUCUUUCTT against Kcne1, the z-score was inactive: -0.578.

“GGUCUUCAAUUUCUUCAAATT against 4930430F08Rik”: the z-score is inactive: 0.0902. To CAUACCUCCACUACUCAAGTT against Olfr1113 belongs inactive: -0.43; to GGUGCUCAUGCAGGUCCAUTT against Slc25a25, inactive: -1; to GGGAGUUUGGCAACUACCUTT against Fkbp6, inactive: 0.502. The same measure for GGGUAACUGGAUAGGAGAATT against Pi15: inactive: -0.669; for GCCUAAUGUCAACAUGAAGTT against Elp4: inactive: 1.97; for GGAAUUCUUCUACUUUCAATT against Tpd52l1: inactive: -0.12.

As for GGGAAUUGCUCAAAGUAAATT against Nqo1, the z-score is inactive: 0.3.

For the sequence “GGUCUGGAGCCAGAACUCUTT against 4632406N01Rik”, the z-score is inactive: -1.09.

Take GGAAAGGAGUCUGCCAGCUTT against Tef: the z-score was inactive: -1.72. The same measure for GGACCUGGAGAAAUUGAAGTT against Nalp6: inactive: 1.1; for GGAGUACAUAGCUAAUGUGTT against Lemd2: inactive: -0.932.

Turning to GCAUGCCUCUCUCAAGUCUTT against Olfr849, the z-score is inactive: -0.179.

Take GGAAGCCUAUGAACUUAAUTT against Zfp180: the z-score is inactive: 0.534.
